Measurements as given in publication PMC12117058.
Numbering of substitutions follows the chain as printed. No constants are given. Whether binding was seen depends on the method and setting. In cells and extracts the contact can be indirect. Some entries that bind do so weakly or less than the wild type.

By UniProt entry, the sequences of proteins in these tests, tags left out.
UniProt B2RYW8: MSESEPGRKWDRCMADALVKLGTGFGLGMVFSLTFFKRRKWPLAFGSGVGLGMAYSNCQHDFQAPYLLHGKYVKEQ

Tests used:
Arg1 (E42A) mutation = biological target: T1, Arg1 (E42A) mutation (UniProt P07824); test: co-IP; hypoxic VSMCs with adenoviral Arg1^WT or Arg1^E42A; endogenous Mic10
T1 sequence: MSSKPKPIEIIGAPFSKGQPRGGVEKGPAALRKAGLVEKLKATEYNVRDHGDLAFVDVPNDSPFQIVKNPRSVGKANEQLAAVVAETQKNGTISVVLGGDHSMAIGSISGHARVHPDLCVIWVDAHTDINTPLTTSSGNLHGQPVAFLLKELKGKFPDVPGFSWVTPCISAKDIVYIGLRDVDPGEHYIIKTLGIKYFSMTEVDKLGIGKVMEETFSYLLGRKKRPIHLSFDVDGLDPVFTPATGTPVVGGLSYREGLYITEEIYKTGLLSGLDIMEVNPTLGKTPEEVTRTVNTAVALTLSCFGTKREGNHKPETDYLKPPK

wild-type Arg1 (Arg1^WT) = biological target: T2, wild-type Arg1 (Arg1^WT) (UniProt P07824); test: as above
T2 sequence: T1 sequence with A42E

[1] = biological target: T3, Arginase 1 (rat (endogenous in VSMCs of Sprague-Dawley rats)) (UniProt P07824); test: co-IP; endogenous Arg1 and Mic10 in VSMCs; normal against hypoxia; hypoxia with siNC against siArg1
T3 sequence: T1 sequence with A42E

binding (Arg1 (E42A) mutation): binds
binding (wild-type Arg1 (Arg1^WT)): binds
binding [1]: binds
Substance: Mic10 (from UniProt B2RYW8 1-76)
